According to US20170096475A1 (published 2017):
No constants are given. Whether binding was seen depends on the method and setting. Some binding calls cover weakened binding; strength is not graded here.

The chains behind the UniProt entries cited, without tags or fusion partners. Residues count along the entry.
UniProt P02768, residues 25-609: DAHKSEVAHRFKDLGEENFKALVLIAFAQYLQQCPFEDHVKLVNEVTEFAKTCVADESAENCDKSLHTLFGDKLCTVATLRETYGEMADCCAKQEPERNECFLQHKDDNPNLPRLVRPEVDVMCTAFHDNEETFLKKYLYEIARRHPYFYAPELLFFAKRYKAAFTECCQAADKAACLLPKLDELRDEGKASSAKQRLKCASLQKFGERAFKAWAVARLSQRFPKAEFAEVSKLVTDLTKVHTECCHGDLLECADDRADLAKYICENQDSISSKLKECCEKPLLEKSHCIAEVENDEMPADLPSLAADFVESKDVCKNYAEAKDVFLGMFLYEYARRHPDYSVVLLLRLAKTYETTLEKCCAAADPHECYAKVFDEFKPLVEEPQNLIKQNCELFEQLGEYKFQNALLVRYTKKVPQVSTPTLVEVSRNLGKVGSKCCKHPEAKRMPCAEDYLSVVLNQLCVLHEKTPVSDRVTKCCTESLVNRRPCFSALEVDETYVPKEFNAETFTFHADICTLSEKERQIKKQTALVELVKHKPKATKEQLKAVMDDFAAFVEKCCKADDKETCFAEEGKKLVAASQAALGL

Biological target: human serum albumin (human) (UniProt P02768)
Assay: phage and periprep ELISA on HSA; error-prone PCR library of hE06v1.10

- binding: binds
B1: SEQ ID NO 89 (VNAR)
chain: TRVDQSPSSLSASVGDRVTITCVLTDTSYPLYSTYWYRKNPGSSNKEQISISGRYSESVNKGTKSFTLTISSLQPEDFATYYCRAMGTNLWTGDGA
